The values below come from ChEMBL document CHEMBL4513141, “CO-ADD screening of NIH (USA) - Clinical Collection” (2021).

The other results are listed elsewhere or left out. Measured potencies and affinities stand elsewhere.

In this test the test system is Pseudomonas aeruginosa. The conditions noted are these: Concentration 20 uM; ASSAY_TEST Inhibition of Bacterial Growth; detection method Absorption (OD600); MEDIA CAMHB; plate type 384well; NBS; CORNING #3640; time 18 hr.
What is called Inhibition is how much of the control response was suppressed. `CC(C)(C)NC(=O)[C@H]1CC[C@H]2[C@@H]3CC[C@H]4NC(=O)C=C[C@]4(C)[C@H]3CC[C@]12C` [FINASTERIDE]: the Inhibition stood at 15.1%.
For `CC12CCC(=O)C=C1CCC1C2CCC2(C)C1CCC2(O)C(=O)CO` (stereo unspecified) the value was 7.63%; for `Cc1cccc(C)c1NC(=O)C1CCCCN1C.Cl` (stereo unspecified) [MEPIVACAINE HYDROCHLORIDE], 12.98%.
As to `O=c1[nH]c(=O)n(C2CCCO2)cc1F` (stereo unspecified) [TEGAFUR], the Inhibition turned out to be 21.04%.
With `CC1=Nc2ccc(Cl)cc2S(=O)(=O)N1` [DIAZOXIDE] the figure was 17.15%.
Regarding `O=C(NCCO[N+](=O)[O-])c1cccnc1` [NICORANDIL], the Inhibition is reported as 11.46%.
With `C[n+]1ccccc1/C=N/O.[Cl-]` [PRALIDOXIME CHLORIDE] the figure was 10.72%; with `CNCC[C@H](Oc1cccc2ccccc12)c1cccs1.Cl` [DULOXETINE HYDROCHLORIDE], 13.26%.
Compound `CNC(=C[N+](=O)[O-])NCCSCc1ccc(CN(C)C)o1.Cl` [RANITIDINE HYDROCHLORIDE] yielded an Inhibition of 10.54%.
`Cc1cnc(NC(=O)C2=C(O)c3ccccc3S(=O)(=O)N2C)s1` [MELOXICAM]: the Inhibition is on record as 4.04%.
For `Cl.O=C1CN2Cc3c(ccc(Cl)c3Cl)N=C2N1` [ANAGRELIDE HYDROCHLORIDE] the value was 17.86%.
For `CN(Cc1cnc2nc(N)nc(N)c2n1)c1ccc(C(=O)N[C@@H](CCC(=O)O)C(=O)O)cc1.O` the value was 10.16%; for `C[C@]12C=CC(=O)C=C1CC[C@@H]1[C@@H]2C(=O)C[C@@]2(C)[C@H]1CC[C@]2(O)C(=O)CO` [PREDNISONE], 17.68%.
Regarding `CC1Cc2ccccc2N1NC(=O)c1ccc(Cl)c(S(N)(=O)=O)c1` (stereo unspecified) [INDAPAMIDE], the Inhibition was determined as 6.26%.
For `CCc1c(C)[nH]c2c1C(=O)C(CN1CCOCC1)CC2.Cl` (stereo unspecified) [MOLINDONE HYDROCHLORIDE] the value was 9.46%.
For `CN1CCC(=C2c3ccccc3CC(=O)c3sccc32)CC1.O=C(O)/C=C/C(=O)O` [KETOTIFEN FUMARATE] the value was 11.46%.
For `CC1CCN(CCCC(=O)c2ccc(F)cc2)CC1.Cl` the value was 18.9%; for `NC(=O)N1c2ccccc2C=Cc2ccccc21` [CARBAMAZEPINE], 9.78%; for `Nc1nc(=O)c2nc(CNc3ccc(C(=O)N[C@@H](CCC(=O)O)C(=O)O)cc3)cnc2[nH]1` [FOLIC ACID], 13.94%.
On to `CCCCc1nc(Cl)c(CO)n1Cc1ccc(-c2ccccc2-c2nnn[n-]2)cc1.[K+]` [LOSARTAN POTASSIUM], for which the Inhibition is listed as 5.11%.
For `CNCCCCOc1ccccc1Cc1ccccc1.Cl` the value was 15.72%; for `CC(N/C(=N\C#N)Nc1ccncc1)C(C)(C)C.O` (stereo unspecified), 0.62%; for `CC(=CCC1=C(C)C(=O)c2ccccc2C1=O)CCCC(C)CCCC(C)CCCC(C)C` (stereo unspecified), 12.7%.
With `CCN1CC(CCN2CCOCC2)C(c2ccccc2)(c2ccccc2)C1=O.Cl` (stereo unspecified) the figure was 16%; with `CCCN[C@H]1CCc2nc(N)sc2C1` [PRAMIPEXOLE], 15.84%.
Compound `Cc1cccc(CN2CCN(C(c3ccccc3)c3ccc(Cl)cc3)CC2)c1.Cl.Cl` (stereo unspecified) came in with an Inhibition of 8.84%.
With `OCCN1CCN(CCCN2c3ccccc3Sc3ccc(Cl)cc32)CC1` [PERPHENAZINE] the figure was 23.05%; with `Nc1ccc(S(=O)(=O)c2ccc(N)cc2)cc1` [DAPSONE], 8.27%.
In turn, `CN(C)CCOC(c1ccc(Cl)cc1)c1ccccn1.O=C(O)/C=C\C(=O)O` (stereo unspecified) [CARBINOXAMINE MALEATE] registered an Inhibition of 8.84%.
For `CC(=O)[C@H]1CC[C@H]2[C@@H]3C[C@H](C)C4=CC(=O)CC[C@]4(C)[C@H]3[C@@H](O)C[C@]12C` [MEDRYSONE] the value was 10.79%; for `Cl.c1ccc2c(c1)CCCC2C1=NCCN1` (stereo unspecified) [TETRAHYDROZOLINE HYDROCHLORIDE], 22.85%.
With `CCCC(=O)Nc1ccc(OCC(O)CNC(C)C)c(C(C)=O)c1.Cl` (stereo unspecified) [ACEBUTOLOL HYDROCHLORIDE] the figure was 12.62%.
For `CN1CCN(c2nc3cc(C(F)(F)F)ccc3n3cccc23)CC1.O=C(O)/C=C\C(=O)O.O=C(O)/C=C\C(=O)O` the value was 7.34%; for `C#C[C@]1(O)CC[C@H]2[C@@H]3CCc4cc(O)ccc4[C@H]3CC[C@@]21C` [ETHINYL ESTRADIOL], 11.31%.
Consider `CN1CCCCC1CCN1c2ccccc2Sc2ccc([S+](C)[O-])cc21.O=S(=O)(O)c1ccccc1` (stereo unspecified) [MESORIDAZINE BESYLATE], for which the Inhibition is listed as 5.37%.
Compound `Cc1ncc([N+](=O)[O-])n1CCO` [METRONIDAZOLE] gave an Inhibition of 12.01%.
With `CCN(Cc1ccncc1)C(=O)C(CO)c1ccccc1` (stereo unspecified) [TROPICAMIDE] the figure was 18.41%; with `O=C(CCCN1CC=C(n2c(=O)[nH]c3ccccc32)CC1)c1ccc(F)cc1` [DROPERIDOL], 9.76%; with `CC(=O)S[C@@H]1CC2=CC(=O)CC[C@]2(C)[C@H]2CC[C@@]3(C)[C@@H](CC[C@@]34CCC(=O)O4)[C@H]12` [SPIRONOLACTONE], 8.19%.
`COc1ccc(-c2oc3c(CC=C(C)C)c(O[C@@H]4O[C@H](CO)[C@@H](O)[C@H](O)[C@H]4O)cc(O)c3c(=O)c2O[C@@H]2O[C@@H](C)[C@H](O)[C@@H](O)[C@H]2O)cc1` [ICARIIN] gave an Inhibition of 18.03%.
`COc1ccc2cc(CCC(C)=O)ccc2c1` [NABUMETONE] gave an Inhibition of 12.84%.
For `CNC(=C[N+](=O)[O-])NCCSCc1csc(CN(C)C)n1` [NIZATIDINE] the value was 8.31%.
With `COc1cc(C)nc(-n2nc(C)cc2OC)n1` [EPIRIZOLE] the figure was 12.79%; with `Cl.O=C1c2c(O)ccc(O)c2C(=O)c2c(NCCNCCO)ccc(NCCNCCO)c21`, 1.28%; with `CNCCC=C1c2ccccc2CCc2ccccc21.Cl` [NORTRIPTYLINE HYDROCHLORIDE], 14.17%.
For `CCc1cc(C(N)=S)ccn1` [ETHIONAMIDE] the value was 20.55%; for `O=C1c2c(O)cc(O)cc2O[C@H](c2ccc(O)c(O)c2)[C@H]1O` [(+)-TAXIFOLIN], 12.91%; for `COC(=O)C1=C(C)NC(C)=C(C(=O)O[C@@H]2CCCN(Cc3ccccc3)C2)[C@@H]1c1cccc([N+](=O)[O-])c1.Cl`, 29.02%.
Compound `COc1cc2nc(N3CCN(C(=O)C4CCCO4)CC3)nc(N)c2cc1OC` (stereo unspecified) [TERAZOSIN] displayed an Inhibition of 7.31%.
On to `CC(C)OC(=O)CCC/C=C\C[C@@H]1[C@@H](CC[C@@H](O)CCc2ccccc2)[C@H](O)C[C@@H]1O` [LATANOPROST], for which the Inhibition turned out to be 38.15%.
With `COc1cc(C)c(/C=C/C(C)=C/C=C/C(C)=C/C(=O)O)c(C)c1C` [ACITRETIN] the figure was 5.45%.
Compound `NS(=O)(=O)c1cc2c(cc1Cl)NCNS2(=O)=O` [HYDROCHLOROTHIAZIDE] returned an Inhibition of 21.02%.
For `CCCc1nc(C)c2c(O)nc(-c3cc(S(=O)(=O)N4CCN(CC)CC4)ccc3OCC)nn12.O=C(O)CC(O)(CC(=O)O)C(=O)O` the value was 9.68%.
With `CC(c1cc2ccccc2s1)N(O)C(N)=O` (stereo unspecified) [ZILEUTON] the figure was 6.91%.
With `CN(C)CCC[C@@]1(c2ccc(F)cc2)OCc2cc(C#N)ccc21.O=C(O)C(=O)O` [ESCITALOPRAM OXALATE], the Inhibition is listed as 7.25%.
The compound `Nc1ccc(O)c(C(=O)O)c1` [MESALAMINE] came in with an Inhibition of 3.43%.
For `O=C([O-])c1cc(=O)c2c(OCC(O)COc3cccc4oc(C(=O)[O-])cc(=O)c34)cccc2o1.[Na+].[Na+]` [CROMOLYN SODIUM] the value was 6.23%; for `CN1CCN(CCCN2c3ccccc3Sc3ccc(C(F)(F)F)cc32)CC1.Cl.Cl` [TRIFLUOPERAZINE HYDROCHLORIDE], 18.35%; for `CS(=O)(=O)O.Oc1ccc(C2CNCCc3c2cc(O)c(O)c3Cl)cc1` (stereo unspecified) [FENOLDOPAM MESYLATE], 12.84%.
Turning to `CCC(C)(C)C(=O)O[C@H]1C[C@@H](C)C=C2C=C[C@H](C)[C@H](CC[C@@H]3C[C@@H](O)CC(=O)O3)[C@H]21` [SIMVASTATIN], the Inhibition is on record as 2.51%.
Take `O=C(O[C@H]1[C@H](Oc2ccccc2COC(=O)C2(O)C=CCCC2=O)O[C@H](CO)[C@@H](O)[C@@H]1O)c1ccccc1` (stereo partly specified) [TREMULACIN]: the Inhibition came to 30.98%.
For `O=C1C(CC[S+]([O-])c2ccccc2)C(=O)N(c2ccccc2)N1c1ccccc1` (stereo unspecified) [SULFINPYRAZONE] the value was 20.19%; for `CC(C)C[C@H](NC(=O)[C@@H](O)[C@H](N)Cc1ccccc1)C(=O)O` [UBENIMEX], 8.82%; for `C=CCc1ccc(O)c(-c2ccc(O)c(CC=C)c2)c1` [HONOKIOL], 34.04%.
As for `Nc1c2c(nc3c1CCC3)CCCC2` [IPIDACRINE], the Inhibition was 19.41%.
With `CC1(C)O[C@@H]2C[C@H]3[C@@H]4C[C@H](F)C5=CC(=O)C=C[C@]5(C)[C@@]4(F)[C@@H](O)C[C@]3(C)[C@]2(C(=O)CO)O1` [FLUOCINOLONE ACETONIDE] the figure was 11.45%.
As to `CN(CCOc1ccc(NS(C)(=O)=O)cc1)CCc1ccc(NS(C)(=O)=O)cc1` [DOFETILIDE], the Inhibition amounted to 16.72%.
For `CCN(CC)CCOC(=O)C1(C2CCCCC2)CCCCC1.Cl` [DICYCLOMINE HYDROCHLORIDE] the value was 3.37%.
With `COc1ccnc(C[S+]([O-])c2nc3cc(OC(F)F)ccc3[n-]2)c1OC.O.[Na+]` (stereo unspecified) [PANTOPRAZOLE SODIUM] the figure was 43.3%.
With `CCC(C)(C)/N=C(\NC#N)Nc1cccnc1` the figure was 33.28%; with `C[C@]12C[C@H](O)[C@H]3[C@@H](CCC4=CC(=O)CC[C@@]43C)[C@@H]1CC[C@@H]2C(=O)CO` [CORTICOSTERONE], 17.17%.
